# The supplement of paper PMC8728848
# The other results are listed elsewhere or left out.
# B1: PX9961M-bvu-482-23-482 (Bacteroides vulgatus) (protein)
# chain: WLDLAPSTQVDTETSINVLSDIEFTLNGIYSTMQSSDAYSGRLVYYGDVTGDDMQAVSSTKRTGNYYRFNFTKDNGPSSHWSYLYSIIQNCNLILMNVDKLSIDEDETEYKNDLKGQALAIRGMALFDLTRIFGYPYLKDNGASLGVPIVKELSTIDSKPARNTVAECYTEIISDLKNSTELLSGDFNKGKVNRWAAMTLLSRVYLYKGEYNEALTMAENAIKGAEKEGYALWTNEEYPTAWGNDASASNPGEILFEIVNLTTDSPGKESMGYLNSYNGYDDMCITCSFYQLLKKDPKDVRLKILSFDKKYYAYVNKYQPQQGENITDANIPLIRLSEAYLNAAEAAVQTGDNAKAVKYLNSIVQRANPENSVEGKTLTLENVLDERRKELVAEGHRMYDVIRNGMTVKRIDVKDSDINKTKHNTAYMEYDWNFHKILLPIPKKEMDANPNMKQNPGYVD
# How the values were obtained:
# Assay in all cases: glycan array binding signal (z-score within array); higher = stronger binding
# Conditions in all cases: glycan notation: IUPAC condensed, linker removed
# Fuc(a1-2)Gal = biological target: Fuc(a1-2)Gal
# Procedure, shortened: (§1)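 The binding signal is a Z-score computed within each array and averaged over linkers. Arrays of the same protein sequence at different concentrations or buffers were also averaged together. Data originate from 3228 arrays in the Consortium for Functional Glycomics database, kept only where the protein sequence was available.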
# Fuc(a1-2)Gal(b1-3)GalNAc = biological target: Fuc(a1-2)Gal(b1-3)GalNAc
# Procedure, shortened: as §1
# [1] = biological target: Fuc(a1-2)Gal(b1-3)GalNAc(a1-3)[Fuc(a1-2)]Gal(b1-4)Glc
# Procedure, shortened: as §1
# [2] = biological target: Fuc(a1-2)Gal(b1-3)GalNAc(a1-3)[Fuc(a1-2)]Gal(b1-4)GlcNAc
# Procedure, shortened: as §1
# [3] = biological target: Fuc(a1-2)Gal(b1-3)GalNAc(b1-3)Gal
# Procedure, shortened: as §1
# [4] = biological target: Fuc(a1-2)Gal(b1-3)GalNAc(b1-3)Gal(a1-4)Gal(b1-4)Glc
# Procedure, shortened: as §1
# [5] = biological target: Fuc(a1-2)Gal(b1-3)GalNAc(b1-4)[Neu5Ac(a2-3)]Gal(b1-4)Glc
# Procedure, shortened: as §1
# Fuc(a1-2)Gal(b1-3)GlcNAc = biological target: Fuc(a1-2)Gal(b1-3)GlcNAc
# Procedure, shortened: as §1
# [6] = biological target: Fuc(a1-2)Gal(b1-3)GlcNAc(b1-2)Man(a1-3)[Fuc(a1-2)Gal(b1-3)GlcNAc(b1-2)Man(a1-6)]Man(b1-4)GlcNAc(b1-4)GlcNAc
# Procedure, shortened: as §1
# [7] = biological target: Fuc(a1-2)Gal(b1-3)GlcNAc(b1-2)Man(a1-3)[Fuc(a1-2)Gal(b1-3)GlcNAc(b1-2)Man(a1-6)]Man(b1-4)GlcNAc(b1-4)[Fuc(a1-6)]GlcNAc
# Procedure, shortened: as §1
# [8] = biological target: Fuc(a1-2)Gal(b1-3)GlcNAc(b1-3)Gal(b1-4)Glc
# Procedure, shortened: as §1
# [9] = biological target: Fuc(a1-2)Gal(b1-3)GlcNAc(b1-3)GalNAc
# Procedure, shortened: as §1
# [10] = biological target: Fuc(a1-2)Gal(b1-3)GlcNAc(b1-3)[Fuc(a1-2)Gal(b1-3)GlcNAc(b1-6)]GalNAc
# Procedure, shortened: as §1
# [11] = biological target: Fuc(a1-2)Gal(b1-3)GlcNAc(b1-3)[Gal(b1-4)GlcNAc(b1-6)]Gal(b1-4)Glc
# Procedure, shortened: as §1
# [12] = biological target: Fuc(a1-2)Gal(b1-3)GlcNAc(b1-3)[Neu5Ac(a2-6)Gal(b1-4)GlcNAc(b1-6)]Gal(b1-4)Glc
# Procedure, shortened: as §1
# [13] = biological target: Fuc(a1-2)Gal(b1-3)GlcNAc6S
# Procedure, shortened: as §1
# [14] = biological target: Fuc(a1-2)Gal(b1-3)[Fuc(a1-4)]GlcNAc
# Procedure, shortened: as §1
# [15] = biological target: Fuc(a1-2)Gal(b1-3)[Fuc(a1-4)]GlcNAc(b1-2)Man(a1-3)[Fuc(a1-2)Gal(b1-3)[Fuc(a1-4)]GlcNAc(b1-2)Man(a1-3)]Man(b1-4)GlcNAc(b1-4)GlcNAc
# Procedure, shortened: as §1
# [16] = biological target: Fuc(a1-2)Gal(b1-3)[Fuc(a1-4)]GlcNAc(b1-2)Man(a1-3)[Fuc(a1-2)Gal(b1-3)[Fuc(a1-4)]GlcNAc(b1-2)Man(a1-6)]Man(b1-4)GlcNAc(b1-4)[Fuc(a1-6)]GlcNAc(b1-4)[Fuc(a1-6)]GlcNAc
# Procedure, shortened: as §1
# [17] = biological target: Fuc(a1-2)Gal(b1-3)[Fuc(a1-4)]GlcNAc(b1-3)[Fuc(a1-3)[Gal(b1-4)]GlcNAc(b1-6)]Gal(b1-4)Glc
# Procedure, shortened: as §1
# [18] = biological target: Fuc(a1-2)Gal(b1-3)[Fuc(a1-4)]GlcNAc(b1-3)[Gal(b1-4)GlcNAc(b1-6)]Gal(b1-4)Glc
# Procedure, shortened: as §1
# Fuc(a1-2)Gal(b1-4)Glc = biological target: Fuc(a1-2)Gal(b1-4)Glc
# Procedure, shortened: as §1
# Fuc(a1-2)Gal(b1-4)Glc6S = biological target: Fuc(a1-2)Gal(b1-4)Glc6S
# Procedure, shortened: as §1
# Fuc(a1-2)Gal(b1-4)GlcNAc = biological target: Fuc(a1-2)Gal(b1-4)GlcNAc
# Procedure, shortened: as §1
# [19] = biological target: Fuc(a1-2)Gal(b1-4)GlcNAc(b1-2)Man
# Procedure, shortened: as §1
# [20] = biological target: Fuc(a1-2)Gal(b1-4)GlcNAc(b1-2)Man(a1-3)[Fuc(a1-2)Gal(b1-4)GlcNAc(b1-2)Man(a1-6)]Man(b1-4)GlcNAc(b1-4)GlcNAc
# Procedure, shortened: as §1
# [21] = biological target: Fuc(a1-2)Gal(b1-4)GlcNAc(b1-2)Man(a1-3)[Fuc(a1-2)Gal(b1-4)GlcNAc(b1-2)Man(a1-6)]Man(b1-4)GlcNAc(b1-4)[Fuc(a1-6)]GlcNAc
# Procedure, shortened: as §1
# [22] = biological target: Fuc(a1-2)Gal(b1-4)GlcNAc(b1-2)[Fuc(a1-2)Gal(b1-4)GlcNAc(b1-4)]Man(a1-3)[Fuc(a1-2)Gal(b1-4)GlcNAc(b1-2)Man(a1-6)]Man(b1-4)GlcNAc(b1-4)GlcNAc
# Procedure, shortened: as §1
# [23] = biological target: Fuc(a1-2)Gal(b1-4)GlcNAc(b1-3)Gal(b1-4)GlcNAc
# Procedure, shortened: as §1
# [24] = biological target: Fuc(a1-2)Gal(b1-4)GlcNAc(b1-3)Gal(b1-4)GlcNAc(b1-2)Man(a1-3)[Fuc(a1-2)Gal(b1-4)GlcNAc(b1-3)Gal(b1-4)GlcNAc(b1-2)Man(a1-6)]Man(b1-4)GlcNAc(b1-4)GlcNAc
# Procedure, shortened: as §1
# [25] = biological target: Fuc(a1-2)Gal(b1-4)GlcNAc(b1-3)Gal(b1-4)GlcNAc(b1-3)Gal(b1-4)GlcNAc
# Procedure, shortened: as §1
# [26] = biological target: Fuc(a1-2)Gal(b1-4)GlcNAc(b1-3)GalNAc
# Procedure, shortened: as §1
# [27] = biological target: Fuc(a1-2)Gal(b1-4)GlcNAc(b1-3)[Fuc(a1-2)Gal(b1-4)GlcNAc(b1-6)]GalNAc
# Procedure, shortened: as §1
# [28] = biological target: Fuc(a1-2)Gal(b1-4)GlcNAc(b1-3)[Fuc(a1-3)[Gal(b1-4)]GlcNAc(b1-6)]Gal(b1-4)Glc
# Procedure, shortened: as §1
# [29] = biological target: Fuc(a1-2)Gal(b1-4)GlcNAc(b1-6)GalNAc
# Procedure, shortened: as §1
# [30] = biological target: Fuc(a1-2)Gal(b1-4)GlcNAc6S
# Procedure, shortened: as §1
# [31] = biological target: Fuc(a1-2)Gal(b1-4)[Fuc(a1-3)]GlcNAc
# Procedure, shortened: as §1
# [32] = biological target: Fuc(a1-2)Gal(b1-4)[Fuc(a1-3)]GlcNAc(b1-2)Man(a1-3)[Fuc(a1-2)Gal(b1-4)[Fuc(a1-3)]GlcNAc(b1-2)Man(a1-6)]Man(b1-4)GlcNAc(b1-4)[Fuc(a1-6)]GlcNAc
# Procedure, shortened: as §1
# [33] = biological target: Fuc(a1-2)Gal(b1-4)[Fuc(a1-3)]GlcNAc(b1-2)[Fuc(a1-2)Gal(b1-4)[Fuc(a1-3)]GlcNAc(b1-4)]Man(a1-3)[Fuc(a1-2)Gal(b1-4)[Fuc(a1-3)]GlcNAc(b1-2)Man(a1-6)]Man(b1-4)GlcNAc(b1-4)GlcNAc
# Procedure, shortened: as §1
# [34] = biological target: Fuc(a1-2)Gal(b1-4)[Fuc(a1-3)]GlcNAc(b1-3)Gal(b1-4)[Fuc(a1-3)]GlcNAc
# Procedure, shortened: as §1
# [35] = biological target: Fuc(a1-2)Gal(b1-4)[Fuc(a1-3)]GlcNAc(b1-3)Gal(b1-4)[Fuc(a1-3)]GlcNAc(b1-3)Gal(b1-4)[Fuc(a1-3)]GlcNAc
# Procedure, shortened: as §1
# [36] = biological target: Fuc(a1-2)Gal(b1-4)[Fuc(a1-3)]GlcNAc(b1-3)GalNAc
# Procedure, shortened: as §1
# [37] = biological target: Fuc(a1-2)Gal(b1-4)[Fuc(a1-3)]GlcNAc(b1-3)[Neu5Ac(a2-6)Gal(b1-4)GlcNAc(b1-6)]Gal(b1-4)Glc
# Procedure, shortened: as §1
# [38] = biological target: Fuc(a1-2)Gal3S(b1-4)GlcNAc
# Procedure, shortened: as §1
# [39] = biological target: Fuc(a1-2)Gal6S(b1-3)GlcNAc
# Procedure, shortened: as §1
binder,measurement,setting,value
B1,glycan array binding signal (z-score),Fuc(a1-2)Gal,-0.065
same,glycan array binding signal (z-score),Fuc(a1-2)Gal(b1-3)GalNAc,0.581
same,glycan array binding signal (z-score),[1],-0.773
same,glycan array binding signal (z-score),[2],-0.555
same,glycan array binding signal (z-score),[3],-0.507
same,glycan array binding signal (z-score),[4],-0.18
same,glycan array binding signal (z-score),[5],0.459
same,glycan array binding signal (z-score),Fuc(a1-2)Gal(b1-3)GlcNAc,-0.671
same,glycan array binding signal (z-score),[6],0.321
same,glycan array binding signal (z-score),[7],-0.012
same,glycan array binding signal (z-score),[8],-0.284
same,glycan array binding signal (z-score),[9],-1.09
same,glycan array binding signal (z-score),[10],-0.153
same,glycan array binding signal (z-score),[11],0.767
same,glycan array binding signal (z-score),[12],0.123
same,glycan array binding signal (z-score),[13],0.432
same,glycan array binding signal (z-score),[14],-0.893
same,glycan array binding signal (z-score),[15],-0.346
same,glycan array binding signal (z-score),[16],-0.077
same,glycan array binding signal (z-score),[17],-0.678
same,glycan array binding signal (z-score),[18],0.057
same,glycan array binding signal (z-score),Fuc(a1-2)Gal(b1-4)Glc,-0.937
same,glycan array binding signal (z-score),Fuc(a1-2)Gal(b1-4)Glc6S,0.624
same,glycan array binding signal (z-score),Fuc(a1-2)Gal(b1-4)GlcNAc,-0.538
same,glycan array binding signal (z-score),[19],-0.349
same,glycan array binding signal (z-score),[20],0.28
same,glycan array binding signal (z-score),[21],0.59
same,glycan array binding signal (z-score),[22],1.74
same,glycan array binding signal (z-score),[23],-1.33
same,glycan array binding signal (z-score),[24],1.21
same,glycan array binding signal (z-score),[25],0.058
same,glycan array binding signal (z-score),[26],0.732
same,glycan array binding signal (z-score),[27],0.468
same,glycan array binding signal (z-score),[28],-0.231
same,glycan array binding signal (z-score),[29],0.551
same,glycan array binding signal (z-score),[30],-0.043
same,glycan array binding signal (z-score),[31],-0.301
same,glycan array binding signal (z-score),[32],0.488
same,glycan array binding signal (z-score),[33],-0.025
same,glycan array binding signal (z-score),[34],-0.577
same,glycan array binding signal (z-score),[35],0.316
same,glycan array binding signal (z-score),[36],-0.235
same,glycan array binding signal (z-score),[37],-0.584
same,glycan array binding signal (z-score),[38],-0.886
same,glycan array binding signal (z-score),[39],-0.427

# 4 records picked at random from those above:
binder,measurement,setting,value
B1,glycan array binding signal (z-score),[9],-1.09
same,glycan array binding signal (z-score),Fuc(a1-2)Gal(b1-3)GalNAc,0.581
same,glycan array binding signal (z-score),[15],-0.346
same,glycan array binding signal (z-score),[20],0.28
